Laboratory results published in the supplement of paper PMC10849652.
The other results are listed elsewhere or left out.

Chains of the proteins cited; added tags and fusions are not shown. Lines headed by an entry give the natural chain unless they say otherwise; changes in a name come on top.
UniProt P34810: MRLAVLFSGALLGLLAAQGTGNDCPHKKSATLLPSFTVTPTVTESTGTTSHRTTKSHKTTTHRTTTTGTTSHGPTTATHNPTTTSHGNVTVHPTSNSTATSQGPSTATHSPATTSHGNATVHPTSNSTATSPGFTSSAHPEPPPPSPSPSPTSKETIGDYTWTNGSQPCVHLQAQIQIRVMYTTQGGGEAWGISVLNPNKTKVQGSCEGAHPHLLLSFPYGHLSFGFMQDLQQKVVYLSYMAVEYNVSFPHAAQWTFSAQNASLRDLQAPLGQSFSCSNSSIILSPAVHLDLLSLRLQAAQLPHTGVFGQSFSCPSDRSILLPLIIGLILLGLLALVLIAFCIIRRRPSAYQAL
UniProt Q12834, whole entry, looked up: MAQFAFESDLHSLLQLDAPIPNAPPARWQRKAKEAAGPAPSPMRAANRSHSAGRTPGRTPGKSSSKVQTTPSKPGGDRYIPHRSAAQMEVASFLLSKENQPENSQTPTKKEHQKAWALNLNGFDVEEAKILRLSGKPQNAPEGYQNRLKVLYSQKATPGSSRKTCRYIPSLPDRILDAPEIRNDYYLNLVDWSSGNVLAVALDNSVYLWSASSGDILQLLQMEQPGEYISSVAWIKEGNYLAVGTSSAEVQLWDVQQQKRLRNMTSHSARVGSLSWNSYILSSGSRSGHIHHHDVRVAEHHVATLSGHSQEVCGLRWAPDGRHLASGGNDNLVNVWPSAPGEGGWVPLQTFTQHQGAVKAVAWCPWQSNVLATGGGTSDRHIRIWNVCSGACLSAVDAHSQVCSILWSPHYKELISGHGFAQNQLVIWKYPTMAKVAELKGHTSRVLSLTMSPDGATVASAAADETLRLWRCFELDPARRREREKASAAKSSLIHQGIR
UniProt O96020, whole entry, looked up: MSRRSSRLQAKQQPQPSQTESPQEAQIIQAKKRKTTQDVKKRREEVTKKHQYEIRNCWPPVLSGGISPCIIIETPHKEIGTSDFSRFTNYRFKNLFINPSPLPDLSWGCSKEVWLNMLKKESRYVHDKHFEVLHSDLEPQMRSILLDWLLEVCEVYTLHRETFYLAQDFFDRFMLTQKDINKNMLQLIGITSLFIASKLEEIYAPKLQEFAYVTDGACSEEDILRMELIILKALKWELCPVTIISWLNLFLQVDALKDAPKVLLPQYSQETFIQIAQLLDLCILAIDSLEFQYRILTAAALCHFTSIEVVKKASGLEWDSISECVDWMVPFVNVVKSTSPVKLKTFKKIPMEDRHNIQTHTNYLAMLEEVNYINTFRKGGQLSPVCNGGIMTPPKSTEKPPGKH
UniProt Q9BUN5: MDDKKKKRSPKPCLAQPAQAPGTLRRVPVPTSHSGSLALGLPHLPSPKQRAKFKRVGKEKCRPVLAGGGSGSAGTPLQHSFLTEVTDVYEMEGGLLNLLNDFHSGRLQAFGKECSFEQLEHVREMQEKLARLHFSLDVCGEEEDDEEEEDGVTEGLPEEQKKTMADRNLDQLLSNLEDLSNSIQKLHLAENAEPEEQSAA
UniProt P51636: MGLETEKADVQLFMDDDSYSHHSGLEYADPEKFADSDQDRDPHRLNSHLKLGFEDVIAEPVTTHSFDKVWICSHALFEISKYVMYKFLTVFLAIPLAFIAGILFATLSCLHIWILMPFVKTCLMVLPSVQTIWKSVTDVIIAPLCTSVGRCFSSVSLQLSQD
UniProt Q07108: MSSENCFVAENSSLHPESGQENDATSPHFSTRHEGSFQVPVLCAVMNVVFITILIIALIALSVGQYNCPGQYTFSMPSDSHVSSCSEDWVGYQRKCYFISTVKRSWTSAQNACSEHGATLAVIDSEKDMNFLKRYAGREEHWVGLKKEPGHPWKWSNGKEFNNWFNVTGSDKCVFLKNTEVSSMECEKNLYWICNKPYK
UniProt P30279, whole entry, looked up: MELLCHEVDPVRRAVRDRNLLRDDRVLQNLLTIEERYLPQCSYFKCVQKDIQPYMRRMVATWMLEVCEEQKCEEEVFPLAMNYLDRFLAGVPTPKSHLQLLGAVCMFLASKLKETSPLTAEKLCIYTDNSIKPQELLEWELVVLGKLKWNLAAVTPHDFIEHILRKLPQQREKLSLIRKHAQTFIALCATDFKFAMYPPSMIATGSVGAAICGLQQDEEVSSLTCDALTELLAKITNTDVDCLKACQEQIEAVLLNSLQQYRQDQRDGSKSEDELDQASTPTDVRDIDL
UniProt P24863: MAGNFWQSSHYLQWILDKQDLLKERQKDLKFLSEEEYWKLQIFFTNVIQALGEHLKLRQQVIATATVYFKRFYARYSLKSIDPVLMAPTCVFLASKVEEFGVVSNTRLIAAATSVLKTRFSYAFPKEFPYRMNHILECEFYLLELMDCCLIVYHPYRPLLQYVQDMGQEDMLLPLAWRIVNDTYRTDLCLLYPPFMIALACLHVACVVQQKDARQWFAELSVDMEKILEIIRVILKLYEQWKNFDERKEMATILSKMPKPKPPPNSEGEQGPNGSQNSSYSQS
UniProt Q92526, whole entry, looked up: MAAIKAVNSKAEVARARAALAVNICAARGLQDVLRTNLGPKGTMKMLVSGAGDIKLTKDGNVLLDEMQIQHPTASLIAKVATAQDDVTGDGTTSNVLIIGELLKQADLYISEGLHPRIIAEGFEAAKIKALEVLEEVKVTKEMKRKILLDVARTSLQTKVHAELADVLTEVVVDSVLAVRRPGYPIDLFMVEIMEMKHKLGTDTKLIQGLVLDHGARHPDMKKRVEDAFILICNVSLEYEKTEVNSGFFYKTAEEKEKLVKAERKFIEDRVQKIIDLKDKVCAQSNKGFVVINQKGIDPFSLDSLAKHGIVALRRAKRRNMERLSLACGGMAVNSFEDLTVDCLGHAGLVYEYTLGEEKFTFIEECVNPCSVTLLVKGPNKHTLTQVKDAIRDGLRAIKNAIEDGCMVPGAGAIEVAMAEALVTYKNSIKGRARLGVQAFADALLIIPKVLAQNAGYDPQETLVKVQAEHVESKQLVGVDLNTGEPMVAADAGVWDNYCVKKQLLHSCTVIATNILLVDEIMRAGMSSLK
UniProt O43439: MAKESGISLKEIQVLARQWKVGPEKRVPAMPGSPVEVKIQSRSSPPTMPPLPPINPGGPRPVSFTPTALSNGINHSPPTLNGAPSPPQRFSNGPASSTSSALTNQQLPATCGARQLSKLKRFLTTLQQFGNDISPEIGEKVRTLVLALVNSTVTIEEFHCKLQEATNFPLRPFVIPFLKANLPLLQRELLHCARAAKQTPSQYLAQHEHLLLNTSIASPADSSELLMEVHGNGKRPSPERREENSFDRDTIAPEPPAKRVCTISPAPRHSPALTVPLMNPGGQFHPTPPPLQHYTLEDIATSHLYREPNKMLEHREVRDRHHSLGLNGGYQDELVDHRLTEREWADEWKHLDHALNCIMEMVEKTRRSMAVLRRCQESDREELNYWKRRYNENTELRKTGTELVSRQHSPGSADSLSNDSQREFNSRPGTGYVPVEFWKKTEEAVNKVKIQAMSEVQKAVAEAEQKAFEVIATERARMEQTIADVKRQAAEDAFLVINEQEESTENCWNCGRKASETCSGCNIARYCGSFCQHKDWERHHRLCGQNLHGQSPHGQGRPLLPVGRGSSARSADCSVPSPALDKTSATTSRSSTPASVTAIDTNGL
UniProt P11049: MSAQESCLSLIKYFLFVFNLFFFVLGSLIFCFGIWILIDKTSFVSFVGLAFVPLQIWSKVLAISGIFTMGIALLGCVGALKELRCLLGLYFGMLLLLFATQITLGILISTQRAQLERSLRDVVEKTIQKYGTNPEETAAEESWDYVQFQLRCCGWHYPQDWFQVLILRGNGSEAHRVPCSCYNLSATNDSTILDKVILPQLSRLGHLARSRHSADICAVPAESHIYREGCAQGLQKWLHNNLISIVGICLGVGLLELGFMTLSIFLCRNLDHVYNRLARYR
UniProt P24864, whole entry, looked up: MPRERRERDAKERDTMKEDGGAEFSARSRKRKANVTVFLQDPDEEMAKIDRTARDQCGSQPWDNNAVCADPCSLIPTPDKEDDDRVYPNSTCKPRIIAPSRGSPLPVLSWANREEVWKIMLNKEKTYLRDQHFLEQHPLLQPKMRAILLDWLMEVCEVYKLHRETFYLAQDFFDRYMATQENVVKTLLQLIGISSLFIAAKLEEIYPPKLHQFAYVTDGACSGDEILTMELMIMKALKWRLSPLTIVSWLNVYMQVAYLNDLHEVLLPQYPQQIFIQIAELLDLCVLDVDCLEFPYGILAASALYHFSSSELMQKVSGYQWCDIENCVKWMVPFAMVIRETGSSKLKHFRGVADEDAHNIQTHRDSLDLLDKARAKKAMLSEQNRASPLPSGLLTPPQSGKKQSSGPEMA
UniProt O14936: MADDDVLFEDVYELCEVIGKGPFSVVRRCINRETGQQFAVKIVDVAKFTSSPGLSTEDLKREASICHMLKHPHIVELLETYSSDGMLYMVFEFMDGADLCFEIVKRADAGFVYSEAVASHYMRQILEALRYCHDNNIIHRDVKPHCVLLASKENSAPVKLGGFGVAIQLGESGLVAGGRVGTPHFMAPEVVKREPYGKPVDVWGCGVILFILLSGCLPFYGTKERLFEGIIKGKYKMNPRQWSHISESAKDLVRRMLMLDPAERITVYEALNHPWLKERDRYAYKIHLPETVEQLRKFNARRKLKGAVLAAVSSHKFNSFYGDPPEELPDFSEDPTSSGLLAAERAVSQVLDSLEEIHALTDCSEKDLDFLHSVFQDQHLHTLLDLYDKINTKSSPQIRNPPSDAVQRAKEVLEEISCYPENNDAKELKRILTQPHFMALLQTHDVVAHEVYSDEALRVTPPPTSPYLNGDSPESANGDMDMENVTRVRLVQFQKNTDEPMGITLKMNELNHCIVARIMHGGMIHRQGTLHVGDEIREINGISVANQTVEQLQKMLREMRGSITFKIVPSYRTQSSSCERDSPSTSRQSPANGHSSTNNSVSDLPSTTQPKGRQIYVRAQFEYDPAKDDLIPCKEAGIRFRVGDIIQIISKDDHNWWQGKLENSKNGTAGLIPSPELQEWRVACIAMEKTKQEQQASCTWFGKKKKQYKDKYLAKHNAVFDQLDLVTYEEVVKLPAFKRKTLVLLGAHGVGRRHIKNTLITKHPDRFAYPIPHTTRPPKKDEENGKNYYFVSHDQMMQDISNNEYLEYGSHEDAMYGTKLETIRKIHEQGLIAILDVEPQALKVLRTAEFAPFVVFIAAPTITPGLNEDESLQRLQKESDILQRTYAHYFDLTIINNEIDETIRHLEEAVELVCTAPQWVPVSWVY
UniProt Q6YHK3: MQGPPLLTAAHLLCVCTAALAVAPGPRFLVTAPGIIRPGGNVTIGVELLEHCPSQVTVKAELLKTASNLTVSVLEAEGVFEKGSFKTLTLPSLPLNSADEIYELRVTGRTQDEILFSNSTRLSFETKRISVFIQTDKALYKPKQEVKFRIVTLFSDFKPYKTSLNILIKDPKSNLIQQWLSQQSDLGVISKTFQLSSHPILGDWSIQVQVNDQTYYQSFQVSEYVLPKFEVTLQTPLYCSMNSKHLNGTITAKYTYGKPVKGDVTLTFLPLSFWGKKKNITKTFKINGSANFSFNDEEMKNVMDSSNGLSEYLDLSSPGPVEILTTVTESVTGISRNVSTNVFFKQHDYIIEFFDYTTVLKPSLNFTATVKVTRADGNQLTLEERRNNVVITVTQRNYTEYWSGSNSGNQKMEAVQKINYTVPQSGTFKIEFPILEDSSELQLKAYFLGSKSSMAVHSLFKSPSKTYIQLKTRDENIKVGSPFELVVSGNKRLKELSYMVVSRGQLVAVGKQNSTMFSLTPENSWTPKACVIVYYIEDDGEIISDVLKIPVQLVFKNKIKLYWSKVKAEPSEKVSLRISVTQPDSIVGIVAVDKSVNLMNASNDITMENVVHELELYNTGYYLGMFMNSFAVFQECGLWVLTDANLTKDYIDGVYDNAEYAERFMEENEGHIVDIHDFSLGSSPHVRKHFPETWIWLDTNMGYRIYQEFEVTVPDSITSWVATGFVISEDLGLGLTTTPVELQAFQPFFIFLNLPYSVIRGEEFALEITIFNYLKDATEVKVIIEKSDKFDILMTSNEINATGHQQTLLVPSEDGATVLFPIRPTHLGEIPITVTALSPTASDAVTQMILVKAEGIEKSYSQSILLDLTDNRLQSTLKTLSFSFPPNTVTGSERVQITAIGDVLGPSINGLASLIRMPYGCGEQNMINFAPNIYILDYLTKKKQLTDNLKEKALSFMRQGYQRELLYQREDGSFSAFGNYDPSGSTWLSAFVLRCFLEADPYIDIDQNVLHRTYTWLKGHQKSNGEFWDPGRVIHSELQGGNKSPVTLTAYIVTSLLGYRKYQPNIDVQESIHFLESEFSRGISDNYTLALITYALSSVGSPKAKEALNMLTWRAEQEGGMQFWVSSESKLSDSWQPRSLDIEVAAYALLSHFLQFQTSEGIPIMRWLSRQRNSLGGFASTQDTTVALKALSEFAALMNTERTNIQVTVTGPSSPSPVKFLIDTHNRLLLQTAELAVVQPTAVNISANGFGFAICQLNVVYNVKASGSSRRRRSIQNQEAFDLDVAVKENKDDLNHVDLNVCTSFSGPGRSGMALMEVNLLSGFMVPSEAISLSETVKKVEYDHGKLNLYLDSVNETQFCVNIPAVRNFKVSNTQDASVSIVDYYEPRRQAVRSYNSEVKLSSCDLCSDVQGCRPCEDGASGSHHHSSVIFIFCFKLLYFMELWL

Legend:
Assay in all cases: log2 fold change, soluble protein after heating vs DMSO (PISA); higher = thermal stabilisation; K562 cells, 10 uM, 30 min; active = over 0.2 and 3.5 SD of the protein, either way, in both replicates (recomputed)
[1] = compound: CC[C@H](C)N1C=C(C2=C(C=C(C=C21)C3=CN=C(C=C3)N4CCNCC4)C(=O)NCC5=C(C=C(NC5=O)C)C)C
Summary of the method: (§1)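 K562 cells (2×10^6 cells/mL) were treated with 10 μM compound for 30 min, and aliquots were heated for 3 min over 48°C-58°C. Pooled aliquots were extracted in PBS with 0.5% NP-40 at 4°C, and the supernatant after 21,000xg for 90 min was measured by TMTpro 16plex LC-MS/MS with channel sums equalised. Reported thermal stability, relative to control samples and from duplicates, is a log2 fold change.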

epoxomicin = compound: CC[C@H](C)[C@@H](C(=O)N[C@@H]([C@@H](C)O)C(=O)N[C@@H](CC(C)C)C(=O)[C@]1(CO1)C)NC(=O)[C@H]([C@@H](C)CC)N(C)C(=O)C [epoxomicin]
Summary of the method: as §1

[2] = compound: CN1C2=C(C3=C1C(=O)N(N=C3)CC4=CC(=CC=C4)N)SC(=C2)S(=O)C
Summary of the method: as §1

saracatinib = compound: CN1CCN(CCOc2cc(OC3CCOCC3)c3c(Nc4c(Cl)ccc5c4OCO5)ncnc3c2)CC1 [saracatinib]
Summary of the method: as §1

alvocidib = compound: CN1CC[C@H](c2c(O)cc(O)c3c(=O)cc(-c4ccccc4Cl)oc23)[C@H](O)C1 [alvocidib]
Summary of the method: as §1

Tubastatin A = compound: CN1CCc2c(c3ccccc3n2Cc2ccc(C(=O)NO)cc2)C1 [Tubastatin A]
Summary of the method: as §1

[3] = compound: CNc1nc(-c2ccc3c(N)n[nH]c3c2)cc(N2C[C@@H](C(=O)NC3CCCCC3)CC[C@H]2C)n1
Summary of the method: as §1

[4] = compound: CCn1c(C(=O)N(C2CC2)C2CC2)cc2c3c(ncn3C)c(Nc3cc(C)n(C)n3)nc21
Summary of the method: as §1

[5] = compound: CCn1cc(-c2ccnc3[nH]c(-c4cccc(CN(C)C)c4)cc23)c(-c2ccc(NC(=O)N(C)C)cc2)n1
Summary of the method: as §1

rosiglitazone = compound: CN(CCOC1=CC=C(C=C1)C[C@H]2C(=O)NC(=O)S2)C3=CC=CC=N3 (racemic) [rosiglitazone]
Summary of the method: as §1

[6] = compound: CN1CCC(CNc2ccc3ncc(-c4cccc(OC(F)(F)F)c4)n3n2)CC1
Summary of the method: as §1

sotrastaurin = compound: CN1CCN(c2nc(C3=C(c4c[nH]c5ccccc45)C(=O)NC3=O)c3ccccc3n2)CC1 [sotrastaurin]
Summary of the method: as §1

[7] = compound: CNC(=O)C1=CC=CC=C1NC2=NC(=NC=C2Cl)NC3=C(C=C(C=C3)N4CCOCC4)OC
Summary of the method: as §1

volasertib = compound: CC[C@@H]1C(=O)N(C)c2cnc(Nc3ccc(C(=O)N[C@H]4CC[C@H](N5CCN(CC6CC6)CC5)CC4)cc3OC)nc2N1C(C)C [volasertib]
Summary of the method: as §1

[8] = compound: CN(C)CC(=O)Nc1ccc2[nH]c(=O)c3ccccc3c2c1
Summary of the method: as §1

defactinib = compound: CNC(=O)c1ccc(Nc2ncc(C(F)(F)F)c(NCc3nccnc3N(C)S(C)(=O)=O)n2)cc1 [defactinib]
Summary of the method: as §1

[9] = compound: COC(=O)[C@H](CCSC)NC(=O)C1=C(C=C(C=C1)NC[C@H](CS)N)C2=CC=CC=C2
Summary of the method: as §1

Measured: log2 fold change

CDC25C (UniProt P30307)
inactive: [1] -0.065 | epoxomicin 0.111 | [2] 0.07 | saracatinib -0.109 | alvocidib 0.025 | Tubastatin A -0.068 | [3] -0.045

CD82 (UniProt P27701)
inactive: [1] 0.038 | epoxomicin 0.136 | [4] -0.084 | [5] -0.11 | rosiglitazone -0.057 | [6] 0.131 | sotrastaurin -0.024 | [7] -0.058

CBX3 (UniProt B8ZZ43)
inactive: rosiglitazone -0.184 | [2] 0.158 | saracatinib -0.14 | [3] 0.119

CD44 (UniProt P16070)
inactive: volasertib -0.004 | [8] 0.021 | [2] -0.053 | saracatinib 0.036 | sotrastaurin -0.044 | alvocidib -0.09 | Tubastatin A 0.146 | defactinib 0.057 | [3] -0.013 | [9] -0.069

CD68 (UniProt P34810)
inactive: sotrastaurin -0.031 | [7] 0.043

CDC20 (UniProt Q12834)
inactive: volasertib -0.12 | epoxomicin 0.132 | [4] 0.078 | [5] -0.025 | [8] -0.128 | rosiglitazone 0.02 | [2] -0.055 | [6] -0.079 | saracatinib -0.076 | sotrastaurin -0.052 | alvocidib -0.067 | Tubastatin A 0.124 | [7] 0.042 | defactinib -0.078 | [3] 0.033 | [9] 0.002

CCNE2 (UniProt O96020)
inactive: [4] 0.061 | [2] 0.29 | saracatinib 0.218 | [7] -0.329 | [3] -0.098

CCDC28B (UniProt Q9BUN5)
inactive: volasertib 0.039 | [4] -0.061 | [5] -0.01 | [8] 0.105 | rosiglitazone -0.067 | [6] 0.005 | sotrastaurin 0.162 | Tubastatin A 0.02 | [7] -0.101 | defactinib 0.071 | [9] 0.15

CCDC187, A0A1W2PQX5
inactive: [1] 0.012 | epoxomicin 0.085 | [5] -0.03 | [6] -0.029

CAV2 (UniProt P51636)
inactive: volasertib -0.098 | [1] -0.032 | [5] -0.036 | [2] 0.01 | [6] 0.074 | saracatinib -0.006 | sotrastaurin 0.045 | Tubastatin A 0.159 | [7] -0.019 | [3] 0.013

Two neighbouring entries out of the list so far, quoted:
CCNE2 (UniProt O96020)
inactive: [4] 0.061 | [2] 0.29 | saracatinib 0.218 | [7] -0.329 | [3] -0.098

CCDC28B (UniProt Q9BUN5)
inactive: volasertib 0.039 | [4] -0.061 | [5] -0.01 | [8] 0.105 | rosiglitazone -0.067 | [6] 0.005 | sotrastaurin 0.162 | Tubastatin A 0.02 | [7] -0.101 | defactinib 0.071 | [9] 0.15

The results go on:

CD69 (UniProt Q07108)
inactive: volasertib 0.18 | [1] 0.051 | epoxomicin 0.082 | [5] 0.021 | [8] -0.01 | rosiglitazone -0.049 | [6] 0.097 | sotrastaurin -0.059 | alvocidib 0.142 | defactinib -0.098 | [9] 0.045

CCND2 (UniProt P30279)
inactive: alvocidib -0.097

CCNC (UniProt P24863)
active: [6] 0.4 | alvocidib 0.6
inactive: epoxomicin 0.035 | [5] -0.178 | [8] -0.011 | [2] 0.032 | saracatinib 0.057 | sotrastaurin -0.057 | [7] 0.008 | defactinib -0.047 | [3] -0.028 | [9] 0.001

CCT6B isoform 3 (UniProt Q92526)
inactive: volasertib -0.295 | [4] -0.163 | [8] 0.016 | [2] 0.153 | saracatinib -0.07 | sotrastaurin 0.261 | alvocidib 0.18 | Tubastatin A 0.213 | [7] -0.256 | defactinib -0.008 | [3] 0.191 | [9] -0.109

CD276 (UniProt Q5ZPR3)
inactive: [5] -0.025 | rosiglitazone 0.238 | [6] 0.071

CBFA2T2 isoform 4 (UniProt O43439)
inactive: [4] -0.046 | [5] -0.178 | rosiglitazone -0.306 | [6] 0.103 | [7] 0.001

CD37 (UniProt P11049)
inactive: volasertib 0.371 | [1] 0.024 | [5] 0 | [8] 0.022 | [2] 0.024 | [6] 0.167 | saracatinib 0.048 | Tubastatin A -0.145 | defactinib -0.171 | [3] -0.084 | [9] 0.284

CCNE1 (UniProt P24864)
inactive: volasertib -0.257 | epoxomicin 0.155 | [4] 0.002 | [5] -0.07 | [8] -0.011 | rosiglitazone -0.176 | [2] -0.02 | [6] 0.166 | saracatinib 0.024 | Tubastatin A 0.091 | [7] -0.259 | defactinib -0.014 | [3] -0.127 | [9] 0.116

CASK (UniProt O14936)
inactive: [2] 0.014 | saracatinib -0.068 | [7] -0.064 | [3] -0.009

CD99L2 isoform 5 (UniProt Q8TCZ2)
inactive: volasertib 0.105 | [1] -0.06 | epoxomicin 0.004 | [4] 0.008 | [5] 0.036 | [8] -0.076 | rosiglitazone 0.017 | [2] 0.084 | [6] 0.073 | saracatinib 0.07 | alvocidib 0.02 | Tubastatin A 0.073 | [7] -0.047 | defactinib -0.013 | [3] -0.023 | [9] 0.205

CD109 (UniProt Q6YHK3)
inactive: [5] -0.01 | [8] 0.058 | [2] 0.171 | [6] 0.151 | saracatinib 0.376 | defactinib -0.421 | [3] 0.14 | [9] 0.026
